Results as given in PMC10889005.
Results are given in words; binding and its absence hold for the method and conditions named. In cells and extracts the contact can be indirect. Some entries that bind do so weakly or less than the wild type. Tags and fused reporters may be left off the sequences shown.

Sequences of proteins named here, by UniProt entry; tags and fusion partners are left off.
UniProt P52294: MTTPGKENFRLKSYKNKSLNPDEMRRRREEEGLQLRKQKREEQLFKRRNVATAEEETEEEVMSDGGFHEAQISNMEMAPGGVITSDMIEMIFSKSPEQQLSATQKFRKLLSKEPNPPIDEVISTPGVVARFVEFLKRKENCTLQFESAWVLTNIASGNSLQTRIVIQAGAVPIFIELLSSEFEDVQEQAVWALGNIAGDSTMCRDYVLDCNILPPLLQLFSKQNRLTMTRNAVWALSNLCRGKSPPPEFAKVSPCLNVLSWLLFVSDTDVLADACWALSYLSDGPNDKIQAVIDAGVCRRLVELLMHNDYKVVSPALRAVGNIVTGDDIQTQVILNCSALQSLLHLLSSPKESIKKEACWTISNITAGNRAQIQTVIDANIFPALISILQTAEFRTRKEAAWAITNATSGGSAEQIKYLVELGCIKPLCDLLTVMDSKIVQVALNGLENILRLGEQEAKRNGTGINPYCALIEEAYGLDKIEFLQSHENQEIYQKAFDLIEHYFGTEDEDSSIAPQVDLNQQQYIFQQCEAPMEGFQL
UniProt O00629: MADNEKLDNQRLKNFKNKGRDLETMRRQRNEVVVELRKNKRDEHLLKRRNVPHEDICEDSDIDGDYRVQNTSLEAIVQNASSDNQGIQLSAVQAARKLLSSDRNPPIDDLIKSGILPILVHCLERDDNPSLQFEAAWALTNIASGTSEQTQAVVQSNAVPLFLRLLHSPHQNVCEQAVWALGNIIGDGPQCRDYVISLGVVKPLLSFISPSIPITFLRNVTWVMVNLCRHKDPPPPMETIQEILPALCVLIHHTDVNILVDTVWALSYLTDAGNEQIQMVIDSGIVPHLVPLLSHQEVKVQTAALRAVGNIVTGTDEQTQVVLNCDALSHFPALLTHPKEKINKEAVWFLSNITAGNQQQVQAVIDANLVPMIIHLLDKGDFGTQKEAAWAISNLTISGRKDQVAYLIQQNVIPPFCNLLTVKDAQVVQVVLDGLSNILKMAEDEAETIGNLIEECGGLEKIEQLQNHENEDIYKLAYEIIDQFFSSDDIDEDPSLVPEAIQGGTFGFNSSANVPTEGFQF
UniProt O00505: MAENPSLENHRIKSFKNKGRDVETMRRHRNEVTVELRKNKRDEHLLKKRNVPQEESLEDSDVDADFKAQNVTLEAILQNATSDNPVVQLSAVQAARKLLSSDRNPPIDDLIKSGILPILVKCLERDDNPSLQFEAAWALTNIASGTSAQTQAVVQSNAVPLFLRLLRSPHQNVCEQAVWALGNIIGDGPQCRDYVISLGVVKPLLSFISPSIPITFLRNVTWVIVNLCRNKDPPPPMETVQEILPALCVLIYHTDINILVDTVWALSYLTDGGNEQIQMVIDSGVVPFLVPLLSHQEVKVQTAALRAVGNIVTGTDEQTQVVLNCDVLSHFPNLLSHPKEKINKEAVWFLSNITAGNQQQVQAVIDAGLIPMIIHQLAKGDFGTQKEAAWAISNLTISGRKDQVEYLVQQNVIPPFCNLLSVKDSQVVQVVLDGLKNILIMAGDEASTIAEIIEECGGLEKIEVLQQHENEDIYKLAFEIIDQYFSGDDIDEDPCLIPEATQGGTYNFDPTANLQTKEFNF

How the values were obtained:
Test in all cases: co-IP
[1] = biological target: Flag-KPNA1 (karyopherin alpha 1, importin alpha) (human) (UniProt P52294)
[2] = biological target: Flag-KPNA4 (karyopherin alpha 4, importin alpha) (human) (UniProt O00629)
[3] = biological target: Flag-KPNA3 (karyopherin alpha 3, importin alpha) (human) (UniProt O00505)

binding [1]	binding [2]	binding [3]	Binder
binds	–	–	Strep-tagged IRF3 (protein, UniProt Q14653 1-427) MGTPKPRILPWLVSQLDLGQLEGVAWVNKSRTRFRIPWKHGLRQDAQQEDFGIFQAWAEATGAYVPGRDKPDLPTWKRNFRSALNRKEGLRLAEDRSKDPHDPHKIYEFVNSGVGDFSQPDTSPDTNGGGSTSDTQEDILDELLGNMVLAPLPDPGPPSLAVAPEPCPQPLRSPSLDNPTPFPNLGPSENPLKRLLVPGEEWEFEVTAFYRGRQVFQQTISCPEGLRLVGSEVGDRTLPGWPVTLPDPGMSLTDRGVMSYVRHVLSCLGGGLALWRAGQWLWAQRLGHCHTYWAVSEELLPNSGHGPDGEVPKDKEGGVFDLGPFIVDLITFTEGSGRSPRYALWFCVGESWPQDQPWTKRLVMVKVVPTCLRALVEMARVGGASSLENTVDLHISNSHPLSLTSDQYKAYLQDLVEGMDFQGPGES
binds	binds	binds	GST-tagged IRF3 DBD (DNA-binding domain, aa 1-140) (domain or fragment, UniProt Q14653 1-140) MGTPKPRILPWLVSQLDLGQLEGVAWVNKSRTRFRIPWKHGLRQDAQQEDFGIFQAWAEATGAYVPGRDKPDLPTWKRNFRSALNRKEGLRLAEDRSKDPHDPHKIYEFVNSGVGDFSQPDTSPDTNGGGSTSDTQEDIL
